Measurements published in paper PMC11235169 (2024).
These are yes or no findings as the source states them, for the method shown. Binding seen in cells or lysates may run through a third protein. Some results given as binding are weak or reduced against the parent protein; the word gives no strength. For some of these results: Where a sequence is shown, tags or fusion partners need not be part of it.

Chains of the proteins cited; added tags and fusions are not shown. Lines headed by an entry give the natural chain unless they say otherwise; changes in a name come on top.
UniProt Q9Z0U4: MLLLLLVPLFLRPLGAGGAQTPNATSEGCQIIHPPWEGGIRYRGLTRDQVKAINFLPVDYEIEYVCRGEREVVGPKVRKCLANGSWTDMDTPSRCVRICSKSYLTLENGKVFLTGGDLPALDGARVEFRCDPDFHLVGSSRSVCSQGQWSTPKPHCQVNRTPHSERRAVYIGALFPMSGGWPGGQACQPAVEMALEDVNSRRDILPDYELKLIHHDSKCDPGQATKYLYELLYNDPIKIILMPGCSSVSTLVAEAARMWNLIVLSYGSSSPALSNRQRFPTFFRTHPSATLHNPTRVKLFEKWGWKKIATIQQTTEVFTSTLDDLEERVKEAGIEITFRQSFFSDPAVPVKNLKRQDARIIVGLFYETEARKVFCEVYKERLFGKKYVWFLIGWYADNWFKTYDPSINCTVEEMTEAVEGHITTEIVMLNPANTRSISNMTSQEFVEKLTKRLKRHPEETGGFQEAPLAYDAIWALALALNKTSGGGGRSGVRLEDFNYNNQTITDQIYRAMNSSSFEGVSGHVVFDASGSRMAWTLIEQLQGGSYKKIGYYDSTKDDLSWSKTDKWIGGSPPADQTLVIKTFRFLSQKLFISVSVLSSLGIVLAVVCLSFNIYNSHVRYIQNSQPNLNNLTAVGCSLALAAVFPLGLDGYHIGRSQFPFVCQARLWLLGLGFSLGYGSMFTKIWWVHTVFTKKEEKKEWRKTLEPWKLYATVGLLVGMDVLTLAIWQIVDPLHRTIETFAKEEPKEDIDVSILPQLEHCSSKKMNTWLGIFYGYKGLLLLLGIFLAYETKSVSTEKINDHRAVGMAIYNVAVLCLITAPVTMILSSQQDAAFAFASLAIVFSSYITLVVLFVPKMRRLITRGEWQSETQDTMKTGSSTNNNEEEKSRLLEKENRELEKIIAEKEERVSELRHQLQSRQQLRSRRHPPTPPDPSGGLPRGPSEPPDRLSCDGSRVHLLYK

What was measured:
[1] = molecular target: GC-GB1a expressed along with GB2 (GB1a/2 receptor) (UniProt Q9Z0U4); test: split reporter; trans-cellular fluorescence complementation of split superfolder GFP (GFP1–10 and GFP11) between two separately transfected pools of HEK293T cells, mixed and cocultured for 24 hours; GFP fluorescence at cell interfaces
AJAP1-Δ273–412 (mouse) = molecular target: T1, AJAP1-Δ273–412 (mouse) (UniProt A2ALI5); test: co-IP; transfected HEK293T cells expressing gephyrin with AJAP1 or AJAP1-Δ273–412; immunoprecipitation with sheep anti-AJAP1 antibody, gephyrin detected by immunoblot
T1 sequence: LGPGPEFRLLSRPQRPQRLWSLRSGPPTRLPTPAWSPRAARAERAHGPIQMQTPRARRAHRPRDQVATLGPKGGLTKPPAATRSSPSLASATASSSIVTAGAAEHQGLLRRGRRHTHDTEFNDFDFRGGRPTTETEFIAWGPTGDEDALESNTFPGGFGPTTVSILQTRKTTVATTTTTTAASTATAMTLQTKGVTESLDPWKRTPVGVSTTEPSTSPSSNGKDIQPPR

[2] = molecular target: T2, AJAP1 (mouse, expressed in HEK293T cells) (mouse) (UniProt A2ALI5); test: as above
T2 sequence: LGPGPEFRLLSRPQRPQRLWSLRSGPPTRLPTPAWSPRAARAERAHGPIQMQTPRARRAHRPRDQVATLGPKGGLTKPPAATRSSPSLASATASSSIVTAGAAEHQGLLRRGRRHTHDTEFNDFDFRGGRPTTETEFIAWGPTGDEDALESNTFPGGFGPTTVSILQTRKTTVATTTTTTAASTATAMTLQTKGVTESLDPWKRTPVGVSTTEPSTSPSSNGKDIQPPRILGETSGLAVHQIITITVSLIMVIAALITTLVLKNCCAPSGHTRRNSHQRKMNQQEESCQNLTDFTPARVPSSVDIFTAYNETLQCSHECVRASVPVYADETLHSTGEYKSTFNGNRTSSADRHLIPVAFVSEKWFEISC

B1: GN-AJAP1-mCherry (protein, UniProt A2ALI5 44-412)
chain: LGPGPEFRLLSRPQRPQRLWSLRSGPPTRLPTPAWSPRAARAERAHGPIQMQTPRARRAHRPRDQVATLGPKGGLTKPPAATRSSPSLASATASSSIVTAGAAEHQGLLRRGRRHTHDTEFNDFDFRGGRPTTETEFIAWGPTGDEDALESNTFPGGFGPTTVSILQTRKTTVATTTTTTAASTATAMTLQTKGVTESLDPWKRTPVGVSTTEPSTSPSSNGKDIQPPRILGETSGLAVHQIITITVSLIMVIAALITTLVLKNCCAPSGHTRRNSHQRKMNQQEESCQNLTDFTPARVPSSVDIFTAYNETLQCSHECVRASVPVYADETLHSTGEYKSTFNGNRTSSADRHLIPVAFVSEKWFEISC
binding [1]: binds

B2: mCherry-tagged full-length gephyrin (protein, UniProt Q03555 1-768)
chain: MATEGMILTNHDHQIRVGVLTVSDSCFRNLAEDRSGINLKDLVQDPSLLGGTISAYKIVPDEIEEIKETLIDWCDEKELNLILTTGGTGFAPRDVTPEKFPTFPFCGLQKGATKEVIEREAPGMALAMLMGSLNVTPLGMLSRPVCGIRGKTLIINLPGSKKGSQECFQFILPALPHAIDLLRDAIVKVKEVHDELEDLPSPPPPLSPPPTTSPHKQTEDKGVQCEEEEEEKKDSGVASTEDSSSSHITAAALAAKIPDSIISRGVQVLPRDTASLSTTPSESPRAQATSRLSTASCPTPKQIRRPDESKGVASRVGSLKVQSRCSSKENILRASHSAVDITKVARRHRMSPFPLTSMDKAFITVLEMTPVLGTEIINYRDGMGRVLAQDVYAKDNLPPFPASVKDGYAVRAADGPGDRFIIGESQAGEQPTQTVMPGQVMRVTTGAPIPCGADAVVQVEDTELIRESDDGTEELEVRILVQARPGQDIRPIGHDIKRGECVLAKGTHMGPSEIGLLATVGVTEVEVNKFPVVAVMSTGNELLNPEDDLLPGKIRDSNRSTLLATIQEHGYPTINLGIVGDNPDDLLNALNEGISRADVIITSGGVSMGEKDYLKQVLDIDLHAQIHFGRVFMKPGLPTTFATLDIDGVRKIIFALPGNPVSAVVTCNLFVVPALRKMQGILDPRPTIIKARLSCDVKLDPRPEYHRCILTWHHQEPLPWAQSTGNQMSSRLMSMRSANGLLMLPPKTEQYVELHKGEVVDVMVIGRL
binding (AJAP1-Δ273–412 (mouse)): no binding | binding [2]: binds

B3: GN-AJAP1-SDBM-mCherry (protein, UniProt A2ALI5 44-412)
chain: LGPGPEFRLLSRPQRPQRLWSLRSGPPTRLPTPAWSPRAARAERAHGPIQMQTPRARRAHRPRDQVATLGPKGGLTKPPAATRSSPSLASATASSSIVTAGAAEHQGLLRRGRRHTHDTEFNDFDFRGGRPTTETEFAAAAAAGDEDALESNTFPGGFGPTTVSILQTRKTTVATTTTTTAASTATAMTLQTKGVTESLDPWKRTPVGVSTTEPSTSPSSNGKDIQPPRILGETSGLAVHQIITITVSLIMVIAALITTLVLKNCCAPSGHTRRNSHQRKMNQQEESCQNLTDFTPARVPSSVDIFTAYNETLQCSHECVRASVPVYADETLHSTGEYKSTFNGNRTSSADRHLIPVAFVSEKWFEISC
binding [1]: no binding
